No constants are given. Whether binding was seen depends on the method and setting. Binding seen in cells or lysates may run through a third protein. These calls come from enrichment with a bait or labelling near it, and not all partners need be listed.
B1: SET and MYND domain-containing protein 3, endogenous (protein, UniProt Q9H7B4 1-428)
chain: MEPLKVEKFATAKRGNGLRAVTPLRPGELLFRSDPLAYTVCKGSRGVVCDRCLLGKEKLMRCSQCRVAKYCSAKCQKKAWPDHKRECKCLKSCKPRYPPDSVRLLGRVVFKLMDGAPSESEKLYSFYDLESNINKLTEDKKEGLRQLVMTFQHFMREEIQDASQLPPAFDLFEAFAKVICNSFTICNAEMQEVGVGLYPSISLLNHSCDPNCSIVFNGPHLLLRAVRDIEVGEELTICYLDMLMTSEERRKQLRDQYCFECDCFRCQTQDKDADMLTGDEQVWKEVQESLKKIEELKAHWKWEQVLAMCQAIISSNSERLPDINIYQLKVLDCAMDACINLGLLEEALFYGTRTMEPYRIFFPGSHPVRGVQVMKVGKLQLHQGMFPQAMKNLRLAFDIMRVTHGREHSLIEDLILLLEECDANIRAS

Amino acid sequences for entries named in this document (tags omitted).
UniProt P18272: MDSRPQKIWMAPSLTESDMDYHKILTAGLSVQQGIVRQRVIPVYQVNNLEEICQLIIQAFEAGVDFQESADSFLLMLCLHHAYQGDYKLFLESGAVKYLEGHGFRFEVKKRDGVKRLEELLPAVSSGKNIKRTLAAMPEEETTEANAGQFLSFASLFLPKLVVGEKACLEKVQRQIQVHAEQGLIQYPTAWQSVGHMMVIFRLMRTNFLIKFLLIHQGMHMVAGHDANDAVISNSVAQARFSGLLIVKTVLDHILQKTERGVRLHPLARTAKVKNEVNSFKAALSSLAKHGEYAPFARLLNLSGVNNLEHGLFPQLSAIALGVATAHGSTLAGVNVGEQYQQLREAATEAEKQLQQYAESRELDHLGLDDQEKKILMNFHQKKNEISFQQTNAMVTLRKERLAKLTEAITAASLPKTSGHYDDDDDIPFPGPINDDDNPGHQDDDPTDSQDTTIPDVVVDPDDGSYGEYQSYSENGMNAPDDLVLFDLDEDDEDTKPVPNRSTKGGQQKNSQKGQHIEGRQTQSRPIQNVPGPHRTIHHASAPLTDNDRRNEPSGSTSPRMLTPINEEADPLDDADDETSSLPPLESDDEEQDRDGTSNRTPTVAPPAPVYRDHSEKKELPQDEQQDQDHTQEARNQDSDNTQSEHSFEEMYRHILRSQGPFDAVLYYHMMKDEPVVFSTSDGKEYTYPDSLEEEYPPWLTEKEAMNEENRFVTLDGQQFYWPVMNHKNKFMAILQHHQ
UniProt Q9BXS5: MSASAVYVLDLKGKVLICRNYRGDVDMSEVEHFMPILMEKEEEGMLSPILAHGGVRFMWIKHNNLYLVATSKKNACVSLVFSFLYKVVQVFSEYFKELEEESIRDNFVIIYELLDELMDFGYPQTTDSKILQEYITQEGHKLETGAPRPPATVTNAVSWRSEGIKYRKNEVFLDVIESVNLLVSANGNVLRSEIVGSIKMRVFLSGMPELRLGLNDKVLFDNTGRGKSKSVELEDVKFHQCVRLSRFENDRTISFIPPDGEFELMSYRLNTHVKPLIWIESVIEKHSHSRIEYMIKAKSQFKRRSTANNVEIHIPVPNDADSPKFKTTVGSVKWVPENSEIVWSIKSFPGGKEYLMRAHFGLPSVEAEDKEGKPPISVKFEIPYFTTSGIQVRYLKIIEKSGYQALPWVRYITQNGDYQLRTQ
UniProt O00571: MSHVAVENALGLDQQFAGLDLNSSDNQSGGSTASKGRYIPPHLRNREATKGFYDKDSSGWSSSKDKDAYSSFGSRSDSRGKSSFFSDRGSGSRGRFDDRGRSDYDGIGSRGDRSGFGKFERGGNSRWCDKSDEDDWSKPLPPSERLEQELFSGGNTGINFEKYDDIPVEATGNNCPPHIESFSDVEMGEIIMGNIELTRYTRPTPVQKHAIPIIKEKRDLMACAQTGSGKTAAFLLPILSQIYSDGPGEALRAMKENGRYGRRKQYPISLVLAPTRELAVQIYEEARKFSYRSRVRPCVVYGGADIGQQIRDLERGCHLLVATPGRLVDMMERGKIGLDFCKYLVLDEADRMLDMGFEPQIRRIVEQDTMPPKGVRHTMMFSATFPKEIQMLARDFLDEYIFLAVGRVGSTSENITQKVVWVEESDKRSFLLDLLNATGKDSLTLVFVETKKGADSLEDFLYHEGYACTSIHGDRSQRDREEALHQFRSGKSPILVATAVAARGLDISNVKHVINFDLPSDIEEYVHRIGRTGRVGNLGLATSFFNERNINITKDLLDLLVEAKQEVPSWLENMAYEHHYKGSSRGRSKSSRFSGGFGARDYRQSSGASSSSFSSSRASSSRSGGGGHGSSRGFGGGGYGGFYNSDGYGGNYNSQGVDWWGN
UniProt Q9NR30: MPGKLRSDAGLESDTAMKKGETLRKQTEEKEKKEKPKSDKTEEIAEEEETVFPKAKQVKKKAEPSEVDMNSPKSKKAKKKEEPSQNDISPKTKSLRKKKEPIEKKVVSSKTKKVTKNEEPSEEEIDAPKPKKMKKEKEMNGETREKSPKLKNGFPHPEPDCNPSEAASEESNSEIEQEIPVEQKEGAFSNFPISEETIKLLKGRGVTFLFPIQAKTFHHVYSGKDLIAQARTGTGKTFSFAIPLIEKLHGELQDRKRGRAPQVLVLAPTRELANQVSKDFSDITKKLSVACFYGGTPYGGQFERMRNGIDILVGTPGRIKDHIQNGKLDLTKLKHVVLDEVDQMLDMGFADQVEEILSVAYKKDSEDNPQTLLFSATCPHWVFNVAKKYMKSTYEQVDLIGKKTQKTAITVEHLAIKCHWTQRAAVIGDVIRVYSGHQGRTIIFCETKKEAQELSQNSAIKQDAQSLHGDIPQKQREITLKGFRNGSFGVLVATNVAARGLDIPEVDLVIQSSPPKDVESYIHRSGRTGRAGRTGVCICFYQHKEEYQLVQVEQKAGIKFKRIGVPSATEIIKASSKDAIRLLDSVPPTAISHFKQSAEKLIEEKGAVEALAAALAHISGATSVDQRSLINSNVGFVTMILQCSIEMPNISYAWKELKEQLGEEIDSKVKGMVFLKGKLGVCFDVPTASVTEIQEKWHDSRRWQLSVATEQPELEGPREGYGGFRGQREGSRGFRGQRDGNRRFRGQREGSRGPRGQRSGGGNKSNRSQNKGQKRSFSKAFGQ
UniProt P11940: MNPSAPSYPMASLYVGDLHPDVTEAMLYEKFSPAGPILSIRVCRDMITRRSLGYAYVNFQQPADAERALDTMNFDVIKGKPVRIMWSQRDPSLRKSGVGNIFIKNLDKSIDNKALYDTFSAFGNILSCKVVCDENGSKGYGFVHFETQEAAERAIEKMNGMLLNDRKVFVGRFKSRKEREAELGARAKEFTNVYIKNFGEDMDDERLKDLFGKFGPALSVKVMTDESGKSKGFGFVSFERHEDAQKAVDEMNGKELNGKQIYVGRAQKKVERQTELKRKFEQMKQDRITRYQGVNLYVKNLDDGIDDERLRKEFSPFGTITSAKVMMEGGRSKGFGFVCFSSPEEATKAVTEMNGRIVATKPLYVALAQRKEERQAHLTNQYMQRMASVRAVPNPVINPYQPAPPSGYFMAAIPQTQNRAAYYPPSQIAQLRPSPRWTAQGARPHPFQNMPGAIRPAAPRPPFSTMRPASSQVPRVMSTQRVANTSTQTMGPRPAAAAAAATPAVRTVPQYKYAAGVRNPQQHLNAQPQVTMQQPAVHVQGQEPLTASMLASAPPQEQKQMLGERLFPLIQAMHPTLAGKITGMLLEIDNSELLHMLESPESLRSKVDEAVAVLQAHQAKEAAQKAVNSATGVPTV

Biological target: C-terminal HA-tagged Zaire ebolavirus (strain Mayinga) nucleoprotein (Zaire ebolavirus (strain Mayinga)) (UniProt P18272)
Assay: affinity purification with mass spectrometry

Molecule	binding
AP1M1, a subunit of adaptor protein complex-1 (from UniProt Q9BXS5 1-423)	binds
RNA helicase DDX3X (from UniProt O00571 1-662)	binds
RNA helicase DDX21 (from UniProt Q9NR30 1-783)	binds
poly-(A)-binding protein PABPC1 (from UniProt P11940 1-636)	binds
B1	binds
